From PubChem BioAssay AID248 (DTP/NCI, 2004)
The list is a part of this screen's results and no random one: it gathers tests that were run many times, whatever their T/C, doses with no T/C, and many T/C values between a quarter and a half above the control. Further doses and runs are listed elsewhere. T/C is the treated group as % of the vehicle group. Some entries give survivors of the animals treated and no T/C: the source holds a T/C of zero for them, seemingly a mark for toxic or unscored doses. Survivors were counted at the toxicity check, usually on the fifth day, unless a day is given; later deaths do not show. Schedule codes are those of the source, read here as Q, the interval in days (D) or hours (H), X, the number of doses. Some schedule codes hold Z or #, which are not explained here. Where survival is the endpoint, this PubChem deposit counts one and a half times the control or more as active, and values a quarter to a half above the control carry no call in these data; other NCI protocols may use other cut-offs. Some doses were run more than once; their values stand side by side, smallest first. Some T/C values carry the count of animals alive at the toxicity check (mostly the fifth day); without a count, all were alive then.

Tested on: L1210 leukemia ip in BDF1 mice, survival T/C
Assay: NCI In Vivo Anticancer Drug Screen. Data for tumor model L1210 Leukemia (intraperitoneal) in B6D2F1 (BDF1) mice
Settings: higher T/C = longer survival

Nc1ncn(C2OC(CO)C(O)C2O)c(=O)n1 (stereo not drawn)
survivor count (T/C endpoint: mean survival time, dose: 256.0 mg/kg/injection, schedule: Q## X008 (oral), vehicle: saline): 3 of 10 | survivor count (T/C endpoint: mean survival time, dose: 384.0 mg/kg/injection, schedule: Q01DX001 (ip), vehicle: saline): 0 of 10 | survivor count (T/C endpoint: mean survival time, dose: 400.0 mg/kg/injection, schedule: Q01DX001 (ip), vehicle: other): 0 of 4 | T/C (T/C endpoint: mean survival time, dose: 512.0 mg/kg/injection, schedule: Q01DX001 (oral), vehicle: saline): 148 % of control | T/C (T/C endpoint: median survival time, dose: 0.47 mg/kg/injection, schedule: Q01DX009 (ip), vehicle: saline, evaluated on day 5): 137 % of control | T/C (T/C endpoint: median survival time, dose: 0.47 mg/kg/injection, schedule: Q01DX009 (ip), vehicle: saline, evaluated on day 40): 127 % of control | T/C (T/C endpoint: median survival time, dose: 0.65 mg/kg/injection, schedule: Q01DX009 (ip), vehicle: saline, evaluated on day 5): 176 and 183 % of control | T/C (T/C endpoint: median survival time, dose: 0.65 mg/kg/injection, schedule: Q01DX009 (ip), vehicle: saline, evaluated on day 27): 133 % of control | T/C (T/C endpoint: median survival time, dose: 0.65 mg/kg/injection, schedule: Q01DX009 (ip), vehicle: saline, evaluated on day 30): 187 % of control | T/C (T/C endpoint: median survival time, dose: 0.65 mg/kg/injection, schedule: Q01DX009 (ip), vehicle: saline, evaluated on day 33): 166 % of control | T/C (T/C endpoint: median survival time, dose: 0.65 mg/kg/injection, schedule: Q01DX009 (ip), vehicle: saline, evaluated on day 34): 176 % of control | T/C (T/C endpoint: median survival time, dose: 0.78 mg/kg/injection, schedule: Q01DX009 (ip), vehicle: saline): 145 % of control | T/C (T/C endpoint: median survival time, dose: 1.0 mg/kg/injection, schedule: Q01DX005 (ip), vehicle: saline): 141 % of control | T/C (T/C endpoint: median survival time, dose: 1.08 mg/kg/injection, schedule: Q01DX009 (ip), vehicle: saline, evaluated on day 5): 208 % of control | T/C (T/C endpoint: median survival time, dose: 1.08 mg/kg/injection, schedule: Q01DX009 (ip), vehicle: saline, evaluated on day 27): 183 % of control | T/C (T/C endpoint: median survival time, dose: 1.08 mg/kg/injection, schedule: Q01DX009 (ip), vehicle: saline, evaluated on day 33): 177 % of control | T/C (T/C endpoint: median survival time, dose: 1.08 mg/kg/injection, schedule: Q01DX009 (ip), vehicle: saline, evaluated on day 34): 208 % of control | T/C (T/C endpoint: median survival time, dose: 1.25 mg/kg/injection, schedule: Q04DX003 (ip), vehicle: saline, evaluated on day 5): 122 and 124 % of control | T/C (T/C endpoint: median survival time, dose: 1.25 mg/kg/injection, schedule: Q04DX003 (ip), vehicle: saline, evaluated on day 8): 112 % of control [4 of 6 alive] | T/C (T/C endpoint: median survival time, dose: 1.25 mg/kg/injection, schedule: Q04DX003 (ip), vehicle: saline, evaluated on day 35): 122 % of control | T/C (T/C endpoint: median survival time, dose: 1.8 mg/kg/injection, schedule: Q01DX009 (ip), vehicle: saline, evaluated on day 5): 230 and 274 % of control | T/C (T/C endpoint: median survival time, dose: 1.8 mg/kg/injection, schedule: Q01DX009 (ip), vehicle: saline, evaluated on day 27): 177 % of control | T/C (T/C endpoint: median survival time, dose: 1.8 mg/kg/injection, schedule: Q01DX009 (ip), vehicle: saline, evaluated on day 30): 225 % of control | T/C (T/C endpoint: median survival time, dose: 1.8 mg/kg/injection, schedule: Q01DX009 (ip), vehicle: saline, evaluated on day 33): 233 % of control | T/C (T/C endpoint: median survival time, dose: 1.8 mg/kg/injection, schedule: Q01DX009 (ip), vehicle: saline, evaluated on day 34): 274 % of control | T/C (T/C endpoint: median survival time, dose: 2.0 mg/kg/injection, schedule: Q01DX005 (ip), vehicle: saline): 126 % of control | T/C (T/C endpoint: median survival time, dose: 2.5 mg/kg/injection, schedule: Q04DX003 (ip), vehicle: saline, evaluated on day 5): 135, 141, 148 % of control | T/C (T/C endpoint: median survival time, dose: 2.5 mg/kg/injection, schedule: Q04DX003 (ip), vehicle: saline, evaluated on day 8): 120 % of control [4 of 6 alive] | T/C (T/C endpoint: median survival time, dose: 2.5 mg/kg/injection, schedule: Q04DX003 (ip), vehicle: saline, evaluated on day 35): 133 % of control | T/C (T/C endpoint: median survival time, dose: 2.5 mg/kg/injection, schedule: Q04DX003 (ip), vehicle: saline, evaluated on day 40): 144 % of control | T/C (T/C endpoint: median survival time, dose: 3.0 mg/kg/injection, schedule: Q01DX009 (ip), vehicle: saline, evaluated on day 5): 112 and 197 % of control | T/C (T/C endpoint: median survival time, dose: 3.0 mg/kg/injection, schedule: Q01DX009 (ip), vehicle: saline, evaluated on day 27): 250 % of control | T/C (T/C endpoint: median survival time, dose: 3.0 mg/kg/injection, schedule: Q01DX009 (ip), vehicle: saline, evaluated on day 30): 187 % of control | T/C (T/C endpoint: median survival time, dose: 3.0 mg/kg/injection, schedule: Q01DX009 (ip), vehicle: saline, evaluated on day 33): 100, 130, 133 % of control | T/C (T/C endpoint: median survival time, dose: 3.0 mg/kg/injection, schedule: Q01DX009 (ip), vehicle: saline, evaluated on day 34): 112 % of control | T/C (T/C endpoint: median survival time, dose: 3.0 mg/kg/injection, schedule: Q04DX003 (ip), vehicle: saline, evaluated on day 5): 143, 158, 163 % of control | T/C (T/C endpoint: median survival time, dose: 3.0 mg/kg/injection, schedule: Q04DX003 (ip), vehicle: saline, evaluated on day 30): 144 and 162 % of control | T/C (T/C endpoint: median survival time, dose: 3.0 mg/kg/injection, schedule: Q04DX003 (ip), vehicle: saline, evaluated on day 33): 145 and 150 % of control | T/C (T/C endpoint: median survival time, dose: 3.0 mg/kg/injection, schedule: Q04DX003 (ip), vehicle: saline, evaluated on day 60): 170 % of control | T/C (T/C endpoint: median survival time, dose: 4.0 mg/kg/injection, schedule: Q01DX005 (ip), vehicle: saline): 144 % of control | T/C (T/C endpoint: median survival time, dose: 5.0 mg/kg/injection, schedule: Q01DX009 (ip), vehicle: saline, evaluated on day 5): 106 and 143 % of control | T/C (T/C endpoint: median survival time, dose: 5.0 mg/kg/injection, schedule: Q01DX009 (ip), vehicle: saline, evaluated on day 30): 143 % of control | T/C (T/C endpoint: median survival time, dose: 5.0 mg/kg/injection, schedule: Q01DX009 (ip), vehicle: saline, evaluated on day 34): 106 % of control
